The target of the assay is T1, GST-SHLD3^1–62 (human) (UniProt Q6ZNX1).
T1 sequence: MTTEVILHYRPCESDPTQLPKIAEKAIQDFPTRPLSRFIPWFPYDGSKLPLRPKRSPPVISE
Description: SEC; Shieldin assembly: 5 µM of MBP-SHLD2^1–60, GST-SHLD3^1–62 and REV7 mutants, 60 min on ice, Superdex-200 3.2/300 in buffer B; both purified. For orientation: SEC sorts molecules by how far they enter the pores of the column.

These are yes or no findings as the source states them, for the method shown. Sequences can lack the tags named with a protein.

This is an account of results in PMC10082759, “Shieldin complex assembly kinetics and DNA binding by SHLD3” (Communications Biology, 2022).

For REV7^ΔC (human) (domain or fragment), the binding result was “no binding (tested: 5 µM)”.
